In article PMC7000731:
No constants are given. Whether binding was seen depends on the method and setting. In cells and extracts the contact can be indirect. Some binding calls cover weakened binding; strength is not graded here.

Sequences of proteins named here, by UniProt entry; tags and fusion partners are left off. Residues count along the entry.
UniProt P27773, residues 25-505: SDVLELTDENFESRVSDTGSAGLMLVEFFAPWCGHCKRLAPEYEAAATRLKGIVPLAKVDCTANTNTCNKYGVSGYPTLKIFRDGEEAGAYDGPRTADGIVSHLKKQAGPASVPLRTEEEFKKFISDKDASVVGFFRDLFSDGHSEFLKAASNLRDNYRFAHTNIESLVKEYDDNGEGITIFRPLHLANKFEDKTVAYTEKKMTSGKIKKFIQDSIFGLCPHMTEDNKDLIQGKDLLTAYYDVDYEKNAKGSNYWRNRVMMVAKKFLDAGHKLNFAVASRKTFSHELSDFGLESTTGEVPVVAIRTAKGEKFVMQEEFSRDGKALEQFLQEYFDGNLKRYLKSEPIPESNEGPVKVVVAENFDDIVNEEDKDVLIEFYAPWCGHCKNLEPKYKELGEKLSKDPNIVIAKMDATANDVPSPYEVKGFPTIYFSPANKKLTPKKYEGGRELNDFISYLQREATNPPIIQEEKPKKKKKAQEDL

Target: PDIA3 (mouse (endogenous in mouse gastrocnemius muscle or C2C12 cells)) (UniProt P27773)
Test: co-IP; total proteins of the lysate immunoprecipitated with an anti-PDIA3 antibody, immunoblotted with an anti-β3 integrin antibody; lysates of gastrocnemius 7 days after CTX injury or of differentiated myoblasts; n = 4

B1: β3 integrin (receptor, UniProt O54890 26-787)
chain: ESNICTTRGVNSCQQCLAVSPVCAWCSDETLSQGSPRCNLKENLLKDNCAPESIEFPVSEAQILEARPLSSKGSGSSAQITQVSPQRIALRLRPDDSKIFSLQVRQVEDYPVDIYYLMDLSFSMKDDLSSIQTLGTKLASQMRKLTSNLRIGFGAFVDKPVSPYMYISPPQAIKNPCYNMKNACLPMFGYKHVLTLTDQVSRFNEEVKKQSVSRNRDAPEGGFDAIMQATVCDEKIGWRNDASHLLVFTTDAKTHIALDGRLAGIVLPNDGHCHIGTDNHYSASTTMDYPSLGLMTEKLSQKNINLIFAVTENVVSLYQNYSELIPGTTVGVLSDDSSNVLQLIVDAYGKIRSKVELEVRDLPEELSLSFNATCLNNEVIPGLKSCVGLKIGDTVSFSIEAKVRGCPQEKEQSFTIKPVGFKDSLTVQVTFDCDCACQAFAQPSSPRCNNGNGTFECGVCRCDQGWLGSMCECSEEDYRPSQQEECSPKEGQPICSQRGECLCGQCVCHSSDFGKITGKYCECDDFSCVRYKGEMCSGHGQCNCGDCVCDSDWTGYYCNCTTRTDTCMSTNGLLCSGRGNCECGSCVCVQPGSYGDTCEKCPTCPDACSFKKECVECKKFNRGTLHEENTCSRYCRDDIEQVKELTDTGKNAVNCTYKNEDDCVVRFQYYEDTSGRAVLYVVEEPECPKGPDILVVLLSVMGAILLIGLATLLIWKLLITIHDRKEFAKFEEERARAKWDTANNPLYKEATSTFTNITYRGT
- binding: binds
